Data: the supplement of paper PMC12067093, “Discovery and optimisation of a covalent ligand for TRIM25 and its application to targeted protein ubiquitination” (Chemical Science, 2025)
This is one part of the list.

Amino acid sequences for entries named in this document (tags omitted). A change or cut given only in a name is not applied to a line headed by its entry.
UniProt Q92882: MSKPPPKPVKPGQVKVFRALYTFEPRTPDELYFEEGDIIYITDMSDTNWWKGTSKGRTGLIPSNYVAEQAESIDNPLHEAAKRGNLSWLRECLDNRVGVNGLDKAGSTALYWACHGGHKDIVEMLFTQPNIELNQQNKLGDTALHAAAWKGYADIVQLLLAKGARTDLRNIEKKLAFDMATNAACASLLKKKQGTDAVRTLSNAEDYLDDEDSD
UniProt Q9NVE7: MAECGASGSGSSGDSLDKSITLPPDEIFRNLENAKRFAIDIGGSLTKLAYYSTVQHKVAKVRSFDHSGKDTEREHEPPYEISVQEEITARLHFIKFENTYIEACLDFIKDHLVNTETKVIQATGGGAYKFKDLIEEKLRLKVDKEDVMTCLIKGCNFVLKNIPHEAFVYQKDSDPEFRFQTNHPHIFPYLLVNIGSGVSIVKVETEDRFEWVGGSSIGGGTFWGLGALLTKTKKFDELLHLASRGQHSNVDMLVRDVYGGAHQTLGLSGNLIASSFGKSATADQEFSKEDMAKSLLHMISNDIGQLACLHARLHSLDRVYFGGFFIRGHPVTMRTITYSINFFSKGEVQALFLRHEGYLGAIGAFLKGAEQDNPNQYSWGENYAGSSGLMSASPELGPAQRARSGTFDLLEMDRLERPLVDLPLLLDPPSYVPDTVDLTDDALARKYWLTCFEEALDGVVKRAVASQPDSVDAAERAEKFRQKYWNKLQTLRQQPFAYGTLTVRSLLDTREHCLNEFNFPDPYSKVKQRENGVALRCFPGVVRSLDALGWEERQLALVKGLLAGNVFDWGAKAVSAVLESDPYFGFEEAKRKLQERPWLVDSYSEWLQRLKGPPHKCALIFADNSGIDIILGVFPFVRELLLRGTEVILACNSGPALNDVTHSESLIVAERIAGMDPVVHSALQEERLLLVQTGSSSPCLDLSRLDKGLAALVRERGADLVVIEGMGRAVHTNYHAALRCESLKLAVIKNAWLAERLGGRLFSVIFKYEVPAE
UniProt Q9NPF4: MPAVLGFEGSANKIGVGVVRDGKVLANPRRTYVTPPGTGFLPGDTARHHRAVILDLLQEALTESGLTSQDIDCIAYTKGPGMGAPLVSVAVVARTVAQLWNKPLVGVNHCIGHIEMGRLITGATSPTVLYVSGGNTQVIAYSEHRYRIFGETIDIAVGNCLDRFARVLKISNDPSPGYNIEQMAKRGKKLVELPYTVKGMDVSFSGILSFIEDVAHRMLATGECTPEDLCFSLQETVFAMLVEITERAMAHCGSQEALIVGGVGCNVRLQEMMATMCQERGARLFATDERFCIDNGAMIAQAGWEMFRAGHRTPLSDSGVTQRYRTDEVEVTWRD
UniProt Q504Q3: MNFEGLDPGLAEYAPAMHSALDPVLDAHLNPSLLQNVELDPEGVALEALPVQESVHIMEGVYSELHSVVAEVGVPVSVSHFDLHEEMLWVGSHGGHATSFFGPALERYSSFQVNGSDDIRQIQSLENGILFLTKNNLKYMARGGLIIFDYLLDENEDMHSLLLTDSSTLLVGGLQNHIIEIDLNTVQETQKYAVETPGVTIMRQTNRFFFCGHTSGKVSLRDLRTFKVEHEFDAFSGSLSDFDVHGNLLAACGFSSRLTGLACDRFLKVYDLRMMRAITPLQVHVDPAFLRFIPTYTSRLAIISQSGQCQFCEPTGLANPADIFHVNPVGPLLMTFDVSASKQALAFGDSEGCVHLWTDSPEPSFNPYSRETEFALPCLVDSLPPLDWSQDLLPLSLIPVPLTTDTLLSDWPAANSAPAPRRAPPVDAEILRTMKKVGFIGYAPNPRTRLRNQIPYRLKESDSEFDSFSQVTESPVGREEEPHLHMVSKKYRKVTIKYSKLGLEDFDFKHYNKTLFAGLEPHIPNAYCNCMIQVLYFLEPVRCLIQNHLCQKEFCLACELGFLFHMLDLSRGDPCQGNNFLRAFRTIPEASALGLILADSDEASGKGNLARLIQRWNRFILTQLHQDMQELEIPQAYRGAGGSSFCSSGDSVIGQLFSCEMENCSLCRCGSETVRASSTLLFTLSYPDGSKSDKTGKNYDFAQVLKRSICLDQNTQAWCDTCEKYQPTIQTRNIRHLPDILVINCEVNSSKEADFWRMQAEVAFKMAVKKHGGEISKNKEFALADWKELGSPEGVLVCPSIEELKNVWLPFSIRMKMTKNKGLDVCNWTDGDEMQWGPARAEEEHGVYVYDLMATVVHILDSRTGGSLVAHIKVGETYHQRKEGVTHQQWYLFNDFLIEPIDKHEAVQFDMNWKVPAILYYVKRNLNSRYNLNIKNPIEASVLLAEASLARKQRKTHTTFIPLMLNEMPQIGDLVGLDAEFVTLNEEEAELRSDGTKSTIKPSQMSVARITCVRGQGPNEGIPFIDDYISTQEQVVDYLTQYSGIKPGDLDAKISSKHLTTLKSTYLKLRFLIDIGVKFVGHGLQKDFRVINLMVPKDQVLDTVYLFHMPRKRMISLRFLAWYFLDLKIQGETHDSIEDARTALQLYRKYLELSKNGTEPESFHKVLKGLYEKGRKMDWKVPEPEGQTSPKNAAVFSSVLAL
UniProt O14841: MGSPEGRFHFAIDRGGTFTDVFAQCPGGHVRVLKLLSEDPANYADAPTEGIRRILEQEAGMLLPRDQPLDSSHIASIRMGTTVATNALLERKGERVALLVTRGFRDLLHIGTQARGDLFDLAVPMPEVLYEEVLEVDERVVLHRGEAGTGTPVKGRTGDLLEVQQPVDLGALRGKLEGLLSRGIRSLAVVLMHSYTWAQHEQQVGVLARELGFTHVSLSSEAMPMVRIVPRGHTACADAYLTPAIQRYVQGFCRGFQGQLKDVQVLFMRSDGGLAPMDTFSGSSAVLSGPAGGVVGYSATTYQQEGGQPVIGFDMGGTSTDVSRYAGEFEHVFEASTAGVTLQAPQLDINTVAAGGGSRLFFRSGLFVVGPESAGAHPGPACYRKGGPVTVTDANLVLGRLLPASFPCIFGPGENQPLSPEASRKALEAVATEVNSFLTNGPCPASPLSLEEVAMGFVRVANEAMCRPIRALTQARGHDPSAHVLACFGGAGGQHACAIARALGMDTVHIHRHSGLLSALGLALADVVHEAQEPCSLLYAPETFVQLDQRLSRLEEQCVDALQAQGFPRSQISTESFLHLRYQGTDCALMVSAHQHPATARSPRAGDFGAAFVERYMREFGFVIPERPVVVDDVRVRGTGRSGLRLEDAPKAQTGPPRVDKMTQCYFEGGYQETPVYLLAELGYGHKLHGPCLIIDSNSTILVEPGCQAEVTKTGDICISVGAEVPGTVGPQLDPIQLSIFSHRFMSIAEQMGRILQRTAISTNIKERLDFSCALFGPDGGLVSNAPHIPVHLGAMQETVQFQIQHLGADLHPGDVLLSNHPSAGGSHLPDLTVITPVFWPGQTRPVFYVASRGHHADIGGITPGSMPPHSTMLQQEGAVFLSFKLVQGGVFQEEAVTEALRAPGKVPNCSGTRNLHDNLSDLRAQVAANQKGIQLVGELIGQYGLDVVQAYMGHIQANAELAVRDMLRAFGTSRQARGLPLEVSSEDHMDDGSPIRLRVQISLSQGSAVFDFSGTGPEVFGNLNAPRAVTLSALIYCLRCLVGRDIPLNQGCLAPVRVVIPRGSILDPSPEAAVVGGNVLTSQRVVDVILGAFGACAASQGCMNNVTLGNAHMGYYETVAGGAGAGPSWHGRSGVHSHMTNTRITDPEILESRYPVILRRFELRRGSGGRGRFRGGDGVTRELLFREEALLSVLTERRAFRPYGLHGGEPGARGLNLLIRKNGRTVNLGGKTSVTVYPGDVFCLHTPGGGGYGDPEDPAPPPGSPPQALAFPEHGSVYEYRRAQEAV
UniProt Q9UGN5: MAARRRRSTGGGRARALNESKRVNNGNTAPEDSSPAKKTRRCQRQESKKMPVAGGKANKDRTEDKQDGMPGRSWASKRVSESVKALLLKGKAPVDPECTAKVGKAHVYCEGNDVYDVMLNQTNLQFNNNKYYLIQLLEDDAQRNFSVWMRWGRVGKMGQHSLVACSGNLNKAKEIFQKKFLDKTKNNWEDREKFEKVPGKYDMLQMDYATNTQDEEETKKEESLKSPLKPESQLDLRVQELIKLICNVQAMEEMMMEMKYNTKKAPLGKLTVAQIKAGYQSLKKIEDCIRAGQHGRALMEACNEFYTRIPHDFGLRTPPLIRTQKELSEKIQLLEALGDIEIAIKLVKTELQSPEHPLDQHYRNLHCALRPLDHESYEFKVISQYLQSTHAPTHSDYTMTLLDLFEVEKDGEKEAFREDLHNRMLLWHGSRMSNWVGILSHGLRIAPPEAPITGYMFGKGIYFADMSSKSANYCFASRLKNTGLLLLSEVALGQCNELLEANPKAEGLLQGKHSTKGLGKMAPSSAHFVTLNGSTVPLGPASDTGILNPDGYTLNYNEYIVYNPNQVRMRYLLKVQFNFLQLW
UniProt Q8N6M0: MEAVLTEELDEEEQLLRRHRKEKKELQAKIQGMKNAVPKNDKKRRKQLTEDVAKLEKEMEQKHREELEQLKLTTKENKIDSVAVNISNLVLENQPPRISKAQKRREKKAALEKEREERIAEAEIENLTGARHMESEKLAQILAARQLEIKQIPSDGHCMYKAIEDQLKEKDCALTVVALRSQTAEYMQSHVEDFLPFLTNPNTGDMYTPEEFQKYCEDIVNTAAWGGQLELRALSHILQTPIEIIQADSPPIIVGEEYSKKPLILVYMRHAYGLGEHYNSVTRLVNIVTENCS
UniProt Q15102: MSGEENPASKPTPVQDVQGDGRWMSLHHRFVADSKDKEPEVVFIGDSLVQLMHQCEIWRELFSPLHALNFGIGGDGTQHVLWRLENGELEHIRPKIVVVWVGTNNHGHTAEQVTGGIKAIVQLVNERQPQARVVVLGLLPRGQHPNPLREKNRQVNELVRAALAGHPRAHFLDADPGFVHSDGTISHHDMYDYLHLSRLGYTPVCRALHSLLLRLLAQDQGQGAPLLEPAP
UniProt Q01804: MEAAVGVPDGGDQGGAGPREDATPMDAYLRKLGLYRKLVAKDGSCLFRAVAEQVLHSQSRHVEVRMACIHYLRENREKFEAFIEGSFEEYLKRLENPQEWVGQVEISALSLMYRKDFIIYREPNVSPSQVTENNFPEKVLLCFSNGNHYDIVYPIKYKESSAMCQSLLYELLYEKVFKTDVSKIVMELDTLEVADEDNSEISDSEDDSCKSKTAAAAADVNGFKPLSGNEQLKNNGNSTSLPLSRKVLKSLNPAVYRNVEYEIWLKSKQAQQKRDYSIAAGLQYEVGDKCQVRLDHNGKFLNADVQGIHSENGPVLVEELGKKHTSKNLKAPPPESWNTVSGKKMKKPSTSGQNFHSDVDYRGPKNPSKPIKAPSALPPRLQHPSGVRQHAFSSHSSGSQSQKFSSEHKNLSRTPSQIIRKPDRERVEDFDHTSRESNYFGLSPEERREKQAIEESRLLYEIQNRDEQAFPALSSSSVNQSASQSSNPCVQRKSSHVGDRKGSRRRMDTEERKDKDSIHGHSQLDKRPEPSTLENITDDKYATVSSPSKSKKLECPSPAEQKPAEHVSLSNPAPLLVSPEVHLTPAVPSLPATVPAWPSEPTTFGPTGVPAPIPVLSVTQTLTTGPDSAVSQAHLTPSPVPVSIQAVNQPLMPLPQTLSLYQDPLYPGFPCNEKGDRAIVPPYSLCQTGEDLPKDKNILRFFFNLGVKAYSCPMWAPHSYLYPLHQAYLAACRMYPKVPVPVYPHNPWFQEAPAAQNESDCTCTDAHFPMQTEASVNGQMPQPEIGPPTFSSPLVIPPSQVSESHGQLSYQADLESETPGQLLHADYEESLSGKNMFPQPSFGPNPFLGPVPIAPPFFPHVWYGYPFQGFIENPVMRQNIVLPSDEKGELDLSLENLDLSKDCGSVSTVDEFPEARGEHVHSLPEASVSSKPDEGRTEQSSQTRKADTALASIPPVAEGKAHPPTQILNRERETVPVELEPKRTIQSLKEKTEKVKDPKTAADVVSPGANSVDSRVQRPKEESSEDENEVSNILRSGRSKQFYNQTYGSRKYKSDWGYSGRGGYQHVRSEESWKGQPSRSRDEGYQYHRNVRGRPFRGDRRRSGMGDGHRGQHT
UniProt P13674: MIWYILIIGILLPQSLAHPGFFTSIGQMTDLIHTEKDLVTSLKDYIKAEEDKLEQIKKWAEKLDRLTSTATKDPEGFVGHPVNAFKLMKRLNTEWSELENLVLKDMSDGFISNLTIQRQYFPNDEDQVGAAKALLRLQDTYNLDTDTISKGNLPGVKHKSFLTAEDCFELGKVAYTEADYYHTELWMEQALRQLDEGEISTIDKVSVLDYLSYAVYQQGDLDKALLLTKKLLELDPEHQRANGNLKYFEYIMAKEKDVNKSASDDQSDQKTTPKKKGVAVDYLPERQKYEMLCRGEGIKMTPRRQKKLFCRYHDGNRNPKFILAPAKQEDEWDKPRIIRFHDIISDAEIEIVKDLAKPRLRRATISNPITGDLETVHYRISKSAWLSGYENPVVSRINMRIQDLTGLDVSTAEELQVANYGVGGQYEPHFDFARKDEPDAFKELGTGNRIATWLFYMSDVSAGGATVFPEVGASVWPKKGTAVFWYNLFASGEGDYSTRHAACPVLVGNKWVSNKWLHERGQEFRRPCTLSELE

Compound: Cc1cc(ccc1-c1ccccc1)C(=O)N1CCCN(CC1)C(=O)CCl [compound 10]
Test: probe-labelled cysteine peptide fold change vs DMSO (competition) (log2 fold change); higher = less target engagement (more negative = stronger competition)
Conditions: 10 µM; THP-1; incubation time: 4 h
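Further: competitive profiling in live THP-1 cells: cysteine peptides tagged with an iodoacetamide desthiobiotin (IA-DTB) probe, intensity after compound treatment relative to DMSO-treated cells.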

Target	probe-labelled cysteine peptide fold change
OS9_Q13438_181_CDLNGRPR (UniProt Q13438)	-0.00915
ORC4_O43929_152_TSSCPVIFILDEFDLFAHHK (UniProt O43929)	0.343
OSTF1_Q92882_185_KLAFDMATNAACASLLK (UniProt Q92882)	-0.0197
PAK1IP1_Q9NWT1_106_HLISGAEDGLICIWDAK (UniProt Q9NWT1)	-0.0234
PAICS_P22234_91_KCGETAFIAPQCEMIPIEWVCR (UniProt P22234)	0.107
PANK4_Q9NVE7_308_SLLHMISNDIGQLACLHAR (UniProt Q9NVE7)	0.027
PAICS_P22234_100_CGETAFIAPQCEMIPIEWVCR (UniProt P22234)	0.0469
P2RX4_Q99571_227_TDPFCPIFR (UniProt Q99571)	-0.235
OSGEP_Q9NPF4_160_IFGETIDIAVGNCLDR (UniProt Q9NPF4)	0.0282
OSBP_P22059_803_QDWSSCPDIF (UniProt P22059)	-0.24
OTUD7B_Q6GQQ9_345_DSGGEAFAPIPFGGIYLPLEVPASQCHR (UniProt Q6GQQ9)	-0.0538
OSBPL1A_Q9BXW6_746_CVLNFKPCGLFGK (UniProt Q9BXW6)	0.0418
PAICS_P22234_81+91+100_CGETAFIAPQCEMIPIEWVCR (UniProt P22234)	0.177
PALD1_Q9ULE6_382_AITACAELHDLK (UniProt Q9ULE6)	-0.02
PAN2_Q504Q3_263_LTGLACDR (UniProt Q504Q3)	0.0943
PAPOLA_P51003_118_GADIDALCVAPR (UniProt P51003)	-0.163
OSBPL1A_Q9BXW6_182_TTELTALLNRPNPPDVNCSDQLGNTPLHCAAYR (UniProt Q9BXW6)	0.0266
OTUB1_Q96FW1_91_TRPDGNCFYR (UniProt Q96FW1)	0.043
PAF1_Q8N7H5_218_MWINPCAQVIFDSDPAPK (UniProt Q8N7H5)	-0.0419

Target	probe-labelled cysteine peptide fold change
OPLAH_O14841_1053_DIPLNQGCLAPVR (UniProt O14841)	-0.0456
OPLAH_O14841_382_SGLFVVGPESAGAHPGPACYR (UniProt O14841)	0.0398
P4HB_P07237_53_YLLVEFYAPWCGHCK (UniProt P07237)	-1.15
PARP2_Q9UGN5_288_KIEDCIR (UniProt Q9UGN5)	0.128
PAPOLG_Q9BWT3_604_TVSPPTVCTIPTVVGR (UniProt Q9BWT3)	-0.2
OTUD6B_Q8N6M0_172_DCALTVVALR (UniProt Q8N6M0)	-0.00399
PARP1_P09874_295+298_VADGMVFGALLPCEECSGQLVFK (UniProt P09874)	-0.0492
P3H1_Q32P28_282_QNCVTELASHPSR (UniProt Q32P28)	0.116
PAFAH1B3_Q15102_205_LGYTPVCR (UniProt Q15102)	0.223
PARP14_Q460N5_42_SGGGECEVR (UniProt Q460N5)	-0.15
OPA1_O60313_874_HFVDSELECNDVVLFWR (UniProt O60313)	0.054
ORC5_O43913_96_LNHLSSSEDGCSTEITCETFNDFVR (UniProt O43913)	0.335
PAICS_P22234_100_KCGETAFIAPQCEMIPIEWVCR (UniProt P22234)	0.182
OTUD4_Q01804_489_DEQAFPALSSSSVNQSASQSSNPCVQR (UniProt Q01804)	-0.0829
P4HA1_P13674_503_HAACPVLVGNK (UniProt P13674)	0.21
PARP14_Q460N5_849_AAGPELQADCDQIVK (UniProt Q460N5)	-0.388
OSBPL8_Q9BZF1_575_LTFLNRGEDYVMTMPYAHCK (UniProt Q9BZF1)	-0.113
P3H1_Q32P28_645_TVTAEVQPQCGR (UniProt Q32P28)	-0.116

Same assay, conditions: 50 µM; THP-1; incubation time: 4 h

Target	probe-labelled cysteine peptide fold change
OS9_Q13438_181_CDLNGRPR (UniProt Q13438)	0.253
ORC4_O43929_152_TSSCPVIFILDEFDLFAHHK (UniProt O43929)	0.354
OSTF1_Q92882_185_KLAFDMATNAACASLLK (UniProt Q92882)	-0.415
PAK1IP1_Q9NWT1_106_HLISGAEDGLICIWDAK (UniProt Q9NWT1)	0.336
PAICS_P22234_91_KCGETAFIAPQCEMIPIEWVCR (UniProt P22234)	-0.0751
PANK4_Q9NVE7_308_SLLHMISNDIGQLACLHAR (UniProt Q9NVE7)	0.157
PAICS_P22234_100_CGETAFIAPQCEMIPIEWVCR (UniProt P22234)	-0.0381
P2RX4_Q99571_227_TDPFCPIFR (UniProt Q99571)	0.0728
OSGEP_Q9NPF4_160_IFGETIDIAVGNCLDR (UniProt Q9NPF4)	0.211
OSBP_P22059_803_QDWSSCPDIF (UniProt P22059)	0.348
OTUD7B_Q6GQQ9_345_DSGGEAFAPIPFGGIYLPLEVPASQCHR (UniProt Q6GQQ9)	0.0712
OSBPL1A_Q9BXW6_746_CVLNFKPCGLFGK (UniProt Q9BXW6)	-0.123
PAICS_P22234_81+91+100_CGETAFIAPQCEMIPIEWVCR (UniProt P22234)	-0.182
PALD1_Q9ULE6_382_AITACAELHDLK (UniProt Q9ULE6)	-0.092
PAN2_Q504Q3_263_LTGLACDR (UniProt Q504Q3)	0.121
PAPOLA_P51003_118_GADIDALCVAPR (UniProt P51003)	0.0543
OSBPL1A_Q9BXW6_182_TTELTALLNRPNPPDVNCSDQLGNTPLHCAAYR (UniProt Q9BXW6)	-0.0898
OTUB1_Q96FW1_91_TRPDGNCFYR (UniProt Q96FW1)	-0.194
PAF1_Q8N7H5_218_MWINPCAQVIFDSDPAPK (UniProt Q8N7H5)	-0.037

Target	probe-labelled cysteine peptide fold change
OPLAH_O14841_1053_DIPLNQGCLAPVR (UniProt O14841)	0.0979
OPLAH_O14841_382_SGLFVVGPESAGAHPGPACYR (UniProt O14841)	0.035
P4HB_P07237_53_YLLVEFYAPWCGHCK (UniProt P07237)	-1.6
PARP2_Q9UGN5_288_KIEDCIR (UniProt Q9UGN5)	-0.0817
PAPOLG_Q9BWT3_604_TVSPPTVCTIPTVVGR (UniProt Q9BWT3)	-0.352
OTUD6B_Q8N6M0_172_DCALTVVALR (UniProt Q8N6M0)	-0.222
PARP1_P09874_295+298_VADGMVFGALLPCEECSGQLVFK (UniProt P09874)	-0.144
P3H1_Q32P28_282_QNCVTELASHPSR (UniProt Q32P28)	0.054
PAFAH1B3_Q15102_205_LGYTPVCR (UniProt Q15102)	0.0983
PARP14_Q460N5_42_SGGGECEVR (UniProt Q460N5)	-0.0237
OPA1_O60313_874_HFVDSELECNDVVLFWR (UniProt O60313)	0.00842
ORC5_O43913_96_LNHLSSSEDGCSTEITCETFNDFVR (UniProt O43913)	0.00516
PAICS_P22234_100_KCGETAFIAPQCEMIPIEWVCR (UniProt P22234)	-0.192
OTUD4_Q01804_489_DEQAFPALSSSSVNQSASQSSNPCVQR (UniProt Q01804)	-0.124
P4HA1_P13674_503_HAACPVLVGNK (UniProt P13674)	0.116
PARP14_Q460N5_849_AAGPELQADCDQIVK (UniProt Q460N5)	-0.321
OSBPL8_Q9BZF1_575_LTFLNRGEDYVMTMPYAHCK (UniProt Q9BZF1)	-0.211
P3H1_Q32P28_645_TVTAEVQPQCGR (UniProt Q32P28)	0.122
